For test [1], the target named is TFIIB (UniProt Q00403). Put plainly: GST pull-down on glutathione-Sepharose, 35S-labelled TFIIB from reticulocyte lysate, SDS-PAGE and fluorography.
The target of test [2] is T1, human ERRα1 (human) (UniProt P11474).
T1 sequence: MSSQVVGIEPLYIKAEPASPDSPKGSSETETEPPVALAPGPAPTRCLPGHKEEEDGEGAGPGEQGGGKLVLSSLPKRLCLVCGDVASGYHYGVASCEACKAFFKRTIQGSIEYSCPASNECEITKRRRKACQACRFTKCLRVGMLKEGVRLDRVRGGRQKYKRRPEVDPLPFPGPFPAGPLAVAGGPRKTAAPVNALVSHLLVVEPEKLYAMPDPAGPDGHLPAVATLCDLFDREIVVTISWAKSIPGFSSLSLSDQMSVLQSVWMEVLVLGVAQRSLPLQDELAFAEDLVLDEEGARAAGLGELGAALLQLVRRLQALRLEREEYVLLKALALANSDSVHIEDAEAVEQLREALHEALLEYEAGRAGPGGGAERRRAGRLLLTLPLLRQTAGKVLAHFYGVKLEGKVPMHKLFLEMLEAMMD
Put plainly: GST pull-down, figure legend of FIG. 9A.

Amino acid sequences for entries named in this document (tags omitted).
UniProt Q00403: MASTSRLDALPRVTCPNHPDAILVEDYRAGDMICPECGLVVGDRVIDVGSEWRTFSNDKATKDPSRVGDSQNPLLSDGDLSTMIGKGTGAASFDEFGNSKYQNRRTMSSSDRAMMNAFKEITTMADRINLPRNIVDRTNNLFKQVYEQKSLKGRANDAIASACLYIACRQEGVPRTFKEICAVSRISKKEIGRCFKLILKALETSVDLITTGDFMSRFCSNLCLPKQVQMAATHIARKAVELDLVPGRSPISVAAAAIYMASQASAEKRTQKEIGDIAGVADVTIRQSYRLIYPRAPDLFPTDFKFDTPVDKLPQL
UniProt P03372: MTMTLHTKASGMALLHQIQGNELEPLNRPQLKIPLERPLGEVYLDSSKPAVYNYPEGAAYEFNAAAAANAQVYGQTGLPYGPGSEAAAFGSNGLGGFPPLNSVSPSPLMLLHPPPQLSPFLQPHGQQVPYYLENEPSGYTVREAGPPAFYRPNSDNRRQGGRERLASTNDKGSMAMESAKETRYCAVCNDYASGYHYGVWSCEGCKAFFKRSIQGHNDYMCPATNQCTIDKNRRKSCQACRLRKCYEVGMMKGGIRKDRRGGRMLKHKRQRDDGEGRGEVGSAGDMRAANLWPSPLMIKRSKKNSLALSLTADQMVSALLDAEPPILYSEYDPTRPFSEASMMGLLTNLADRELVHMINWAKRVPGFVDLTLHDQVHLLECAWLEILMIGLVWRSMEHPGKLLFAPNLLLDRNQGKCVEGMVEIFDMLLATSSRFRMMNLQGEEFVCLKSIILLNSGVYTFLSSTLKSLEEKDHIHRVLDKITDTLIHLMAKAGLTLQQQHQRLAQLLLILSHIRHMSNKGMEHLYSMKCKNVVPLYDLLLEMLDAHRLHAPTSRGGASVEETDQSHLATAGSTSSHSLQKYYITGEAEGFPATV

Test [3] concerns the target T1, human ERRα1 (human). Put plainly: GST pull-down, 35S-labelled ERRα1 from reticulocyte lysate.

The results in this text go back to patent US20030152959A1.

Results are given in words; binding and its absence hold for the method and conditions named. In cells and extracts the contact can be indirect. Some results given as binding are weak or reduced against the parent protein; the word gives no strength.

Consider “GST-COUP-TF1 (from UniProt P08515 1-218; P10589 1-423)”, for which the binding result in test [1] was “binds”.

On to GST-ERα (from UniProt P03372 1-595), for which the binding entry in test [2], in test [3] and in test [1] was “binds” throughout.

Take GST-TFIIB (from UniProt Q00403 1-316): in test [3], the binding entry was “binds”.
